Measurements as given in PubChem BioAssay AID2685 (National Center for Advancing Translational Sciences (NCATS), 2010).
Some of the results follow. The main result of the screen is listed elsewhere. These columns were measured beside it and carry no call. The list favours compounds with an active or inconclusive main result. Potencies come from curve fits of mixed quality, noted in brackets.

Test: qHTS Assay for Lipid Storage Modulators in Drosophila S3 Cells;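 for cell number change: cells counted by Cell Tracker Red CMTPX staining in the red channel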
Settings: BODIPY lipid droplet fluorescence, 18-24 h; for cell number change: measured here: cell count max response, cells fed with added oleic acid
In short: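 Drosophila S3 cells loaded with oleic acid (400 uM, as added) and compounds at several concentrations; lipid droplets imaged by 488-nm laser-scanning cytometry, 500–530 nm intensity and object ratio to cell channel. Percent activity normalized to 20 uM Triacsin C.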

[1] = measured here: lipid fluorescence (Fed channel) AC50, cells fed with added oleic acid
[2] = measured here: cell number channel AC50, cells fed with added oleic acid

Row | SMILES | cell number change [%] | AC50 [1] | AC50 [2]
1 | O=C1CN(C(=O)CSc2nncs2)c2ccccc2N1 | 23.3 | 2.59 µM [rising, partial curve] | –
2 | CC(C)C(c1nnnn1Cc1ccco1)N1CCN(C2CCCC2)CC1 (stereo unspecified) | 23.7 | – | 0.00461 µM [rising, full curve, poor fit]
3 | O=C(OCC(=O)N1CCN(S(=O)(=O)c2ccc(Cl)cc2)CC1)c1cccc(OC(F)F)c1 | 2.56 | – | –
4 | COc1ccccc1C(=O)Nc1ccc(OCC(=O)N2CCCCC2C)cc1 (stereo unspecified) | 20 | 0.082 µM [rising, full curve] | –
5 | NC(=NCCc1ccccc1)NS(=O)(=O)c1ccccc1F | -8.96 | 0.731 µM [rising, single point] | –
6 | Nc1n[nH]c(N)c1N=Nc1ccccc1 | -3.98 | 6.51 µM [falling, single point] | –
7 | Cc1ccc(C)c(N2CCN(C(=O)c3ccc(N4CCOCC4)c([N+](=O)[O-])c3)CC2)c1 | 32.9 | – | 20.6 µM [rising, single point]
8 | COCCNC(=O)CN1C(=O)/C(=C/c2ccccc2)Oc2ccc(C(C)(C)C)cc21 | -62.3 | 4.61 µM [falling, partial curve] | 6.51 µM [falling, partial curve]
9 | Cc1ccnc(SCCn2c(N3CCN(C)CC3)nc3c2c(=O)[nH]c(=O)n3C)n1 | -51 | 29.1 µM [falling, single point] | 29.1 µM [falling, single point]
10 | CONc1nc(NC(C)(C)C)nc(OCC#N)n1 | 39.7 | – | 32.6 µM [rising, single point]
11 | Cc1ccccc1N1CCN(C2CCCN(C(=O)c3csc(C(C)C)n3)C2)CC1 (stereo unspecified) | -21.3 | – | 3.26 µM [rising, single point]
12 | O=C(Nc1ccccc1)Nc1ccccc1C(=O)NCc1ccccc1 | – | 0.731 µM [rising, single point] | –
13 | CCSc1nnc(N2C(=O)c3ccc(C(=O)c4ccc(C(=O)O)cc4)cc3C2=O)s1 | -0.787 | 18.4 µM [rising, partial curve] | –
14 | COc1ccc(C2=NN(C(=O)CSc3cn(C)c4ccccc34)C(c3ccc(OC)cc3)C2)cc1 (stereo unspecified) | – | 1.84 µM [rising, partial curve] | –
15 | CCCCCC(=O)Nc1nc(C)c(-c2csc(Nc3cc(OC)ccc3OC)n2)s1 | – | 2.06 µM [rising, partial curve, poor fit] | –
16 | NS(=O)(=O)c1ccc(N/C=C\C(=O)c2cccc3ccccc23)cc1 | 25.4 | 0.206 µM [rising, partial curve] | –
17 | CCCCn1c(=O)c(C(=O)c2ccccc2)nc2ccccc21 | 42.4 | 29.1 µM [rising, single point] | 32.6 µM [rising, single point]
18 | CC(=O)c1c(C(C)=O)c(C)n(-c2nc(-c3cccs3)c(C)s2)c1C | – | 6.51 µM [rising, partial curve] | 6.51 µM [rising, single point]
19 | CCn1ccc2c(OCC(=O)NCCc3ccc(OC)c(OC)c3)cccc2c1=O | -39 | – | –
20 | O=C(COc1ccccc1/C=C1\SC(=O)NC1=O)Nc1ccc(F)cc1 | 11.5 | – | –

Row | SMILES | cell number change [%] | AC50 [1] | AC50 [2]
21 | Brc1ccc(C2=Nn3c(nnc3-c3cccnc3)SC2)s1 | -19.6 | – | –
22 | Cc1ccc2[nH]c(=O)c(CN(CCN3CCOCC3)C(=O)Nc3ccc(F)cc3)cc2c1 | 57.9 | 0.58 µM [rising, full curve, poor fit] | 13 µM [rising, partial curve]
23 | CCOC(=O)c1sc2nc(CC(=O)OC)nc(NCc3ccco3)c2c1C | 124 | 1.03 µM [rising, full curve] | 6.51 µM [rising, partial curve]
24 | O=C(CSCc1ccc(Br)cc1)N=Nc1c(O)[nH]c2ccccc12 | 13.3 | – | –
25 | CCSc1nsc(NC(=O)Nc2cccc(C(C)=O)c2)n1 | -40.5 | 14.6 µM [falling, single point] | 18.4 µM [falling, single point]
26 | CCOC(=O)c1c(C(C)(C)C)oc2ccc(OCC#N)cc12 | 6.3 | 1.46 µM [rising, partial curve] | 5.8 µM [rising, partial curve, poor fit]
27 | CC1(c2ccccc2)NC(=O)N(CC(=O)NC(=O)NC2CCCC2)C1=O (stereo unspecified) | 92.1 | 29.1 µM [rising, single point] | 23.1 µM [rising, single point]
28 | Cc1ccc(-n2c(SCC(=O)Nc3ccc4c(c3)OCO4)nnc2-c2cccs2)cc1 | – | 6.51 µM [rising, single point] | –
29 | CCOC(=O)Cn1c(=O)c2c(nc3n2CCN3Cc2ccccc2)n(C)c1=O | 15.5 | 6.51 µM [rising, single point] | 0.259 µM [rising, full curve, poor fit]
30 | COc1ccc(OC)c(NC(=O)CCNS(=O)(=O)c2cccc3nsnc23)c1 | – | – | 0.058 µM [falling, full curve, poor fit]
31 | Cc1c(Cl)cccc1NC(=O)CSc1sc2c(O)cc(=O)[nH]c2c1C#N | -5.65 | – | –
32 | O=C(COc1ccccc1)Nc1nn[nH]n1 | -4.23 | 0.058 µM [falling, full curve] | –
33 | COC(=O)[C@@]1(Cc2ccc(OC)cc2)[C@H]2c3cc(C(=O)N4CCCC4)n(Cc4ccc(C)o4)c3C[C@H]2CN1C(=O)c1ccccc1 | -9.46 | 29.1 µM [falling, single point] | –
34 | CCC1(c2ccc(F)cc2)NC(=O)N(CC(=O)Nc2ccc(S(N)(=O)=O)cc2)C1=O (stereo unspecified) | -84.8 | 23.1 µM [falling, partial curve] | 29.1 µM [falling, single point]
35 | CCc1ccc(C(=O)COC(=O)CNC(=O)c2cccs2)cc1 | -9.59 | – | 6.51 µM [falling, single point]
36 | CCOc1ccccc1N1CCN(C(=O)c2ccc(S(=O)(=O)Nc3ccccc3)cc2)CC1 | -38.3 | 5.8 µM [falling, partial curve, poor fit] | 25.9 µM [falling, single point]
38 | Cn1nnnc1SCCNCc1cc(Cl)ccc1OCc1ccccc1 | – | 29.1 µM [falling, single point] | –
39 | Fc1cccc(-n2c(-c3ccco3)nc3nc4ccccc4nc32)c1 | 12.1 | – | –
40 | CN(C)c1nnnn1-c1ccc(Oc2ccccc2)cc1 | 20.6 | – | –

Row | SMILES | cell number change [%] | AC50 [1] | AC50 [2]
41 | NS(=O)(=O)c1ccc(CCNC(=O)CCCCCNc2nc(=S)[nH]c3ccccc23)cc1 | 6.37 | 0.461 µM [rising, full curve, poor fit] | –
42 | COc1ccc(OC)c(C(=O)c2ccc(C(=O)N3CCN(Cc4csc(C)n4)CC3)cc2)c1 | -51.3 | 16.4 µM [falling, single point] | 16.4 µM [falling, single point]
43 | Cn1c(=O)c2c(nc(Sc3ncnn3CC(=O)NC3CCCCC3)n2C)n(C)c1=O | 30.3 | 2.59 µM [rising, full curve] | 2.06 µM [rising, full curve, poor fit]
44 | COc1ccc(C(=O)C2CC2c2ccc3c(c2)OCO3)cc1 (stereo unspecified) | – | – | 2.06 µM [rising, partial curve]
45 | O=C(Cn1c(=O)oc2ccccc21)Nc1ccc(F)cc1 | -8.39 | – | –
46 | Cc1cc2c(c(=O)n1Cc1cccnc1)C(c1ccccc1)C(C#N)=C(N)O2 (stereo unspecified) | -22.9 | 1.46 µM [falling, full curve] | 1.16 µM [falling, full curve, poor fit]
47 | CCCCN1CC(=O)N2[C@H](c3ccc(Cl)cc3)[C@@H]3C(=O)N(CC)C(=O)[C@@H]3[C@]2(C)C1=O | – | 6.51 µM [rising, single point] | –
48 | COc1ccccc1C(O)(c1ccccc1)C(CN1CCOCC1)c1ccccc1 (stereo unspecified) | -16 | 29.1 µM [falling, single point] | –
49 | COc1ccc(C(=O)NC(=S)N2CCCCC2)cc1 | – | 4.11 µM [falling, single point] | –
50 | CC(CNC(=O)COC(=O)c1cccnc1Cl)c1ccccc1 (stereo unspecified) | -6.43 | – | –
51 | Cc1cc(C)nc(NC2=NCC(=O)N2c2ccc3c(c2)OCCO3)n1 | – | 6.51 µM [rising, single point] | –
52 | COC(=O)CNC(=O)COC(=O)c1ccc(Cl)nc1 | -23.9 | 20.6 µM [falling, single point] | –
53 | Cc1cccc(NS(=O)(=O)c2ccc3[nH]c(=O)[nH]c3c2)c1C | 20.4 | 0.82 µM [falling, full curve] | –
54 | Cc1cccc(NC(=O)c2ccc([N+](=O)[O-])o2)n1 | 10.3 | 29.1 µM [falling, partial curve] | 0.00461 µM [falling, full curve, poor fit]
55 | O=C(O)c1cc(-c2cc3ccccc3o2)nn1-c1ccccc1 | -19.5 | – | –
56 | CCOc1ccccc1NC(=O)CCNS(=O)(=O)c1cccc2nsnc12 | -16.7 | – | 0.146 µM [falling, full curve, poor fit]
57 | CCOc1ccc(S(=O)(=O)NCCC(=O)NC2=NCCS2)cc1 | -2.79 | 0.116 µM [falling, full curve, poor fit] | –
58 | Cc1ccc(Cl)c(N/C=C/C(=O)c2ccccc2)c1 | 14.3 | 20.6 µM [falling, single point] | –

By substructure, the compounds so far with a COOH group.
Row | SMILES | cell number change [%] | AC50 [1] | AC50 [2]
13 | CCSc1nnc(N2C(=O)c3ccc(C(=O)c4ccc(C(=O)O)cc4)cc3C2=O)s1 | -0.787 | 18.4 µM [rising, partial curve] | –
55 | O=C(O)c1cc(-c2cc3ccccc3o2)nn1-c1ccccc1 | -19.5 | – | –
